Data: patent publication US20210395281A1, “MACROCYCLIC CHELATES AND USES THEREOF” (Fusion Pharmaceuticals Inc., priority 2020, published 2021)

Assay: Radiolabeling with ^89Zr, conversion by radioTLC
Format: physicochemical
Conditions: HEPES 0.5 M, 90° C., 1 h

Molecule	Conversion (%) (^89Zr(ox)2)	Conversion (%) (^89ZrCl4)
O=C(O)CN1CCN(CC(=O)O)CCN(CC(=O)O)[C@@H](Cc2ccc([N+](=O)[O-])cc2)CN(CC(=O)O)CC1 [DOTA, S-2-(4-nitrobenzyl)-1,4,7,10-tetraazacyclododecane tetraacetic acid]	33	50
desferrioxamine mesylate salt [DFO]	> 99	
